Data taken from article PMC4917237.
No constants are given. Whether binding was seen depends on the method and setting. For some of these results: In cells and extracts the contact can be indirect. For some of these results: Binding calls can cover weak binding; strength is not graded here. For some of these results: Sequences can lack the tags named with a protein. Blank lines part the entries; values can stand above or below the binder they belong to.

Legend:
[1] = biological target: OsOFP8-YFP (rice (Oryza sativa)); assay: co-IP; Arabidopsis protoplasts co-transfected, 8 h; lysate in IP buffer (10 mM Tris-HCl pH 7.4, 150 mM NaCl, 0.5 mM EDTA, 0.2% Nonidet P-40, 5% glycerol); GFP-Trap agarose beads 4 h at 4°C; immunoblot with GFP and HA antibodies
[2] = biological target: OVATE domain-containing C-terminal region of OsOFP8, yeast two-hybrid fusion (rice (Oryza sativa)); assay: two-hybrid; yeast two-hybrid (Clontech), pGBKT7 and pGADT7 fusions; interaction read on SD-Leu-Trp-His-Ade plates
[3] = biological target: N-terminal region of OsOFP8, yeast two-hybrid fusion (rice (Oryza sativa)); assay: as above
[4] = biological target: OsOFP8 in pSPYCE-35S (BiFC fusion) (rice (Oryza sativa)); assay: split reporter; BiFC: pSPYNE-35S-OsGSK2 and pSPYCE-35S-OsOFP8 co-transfected into protoplast cells, 12 h in the dark, YFP fluorescence observed

binding [1]: binds
B1: 3HA-OsGSK2 (enzyme, UniProt Q60EZ2 1-402)
chain: MDQPAPAPEPMLLDAQPPAAVACDKKQQEGEAPYAEGNDAVTGHIISTTIGGKNGEPKRTISYMAERVVGTGSFGIVFQAKCLETGETVAIKKVLQDRRYKNRELQLMRAMDHPNVISLKHCFFSTTSRDELFLNLVMEYVPETLYRVLKHYSNANHRMPLIYVKLYMYQLFRGLAYIHTVPGVCHRDVKPQNVLVDPLTHQVKLCDFGSAKTLVPGEPNISYICSRYYRAPELIFGATEYTTSIDIWSAGCVLAELLLGQPLFPGESAVDQLVEIIKVLGTPTREEIRCMNPNYTEFRFPQIKAHPWHKVFHKRMPPEAIDLASRLLQYSPSLRCTALDACAHPFFDELREPNARLPNGRPFPPLFNFKHELANSSQELISRLIPEHVRRQATHNFFNTGS

binding [2]: no binding
binding [3]: no binding
B2: OsGSK2, yeast two-hybrid fusion (enzyme, UniProt Q60EZ2 1-402)
chain: B1 chain

binding [4]: binds
B3: OsGSK2 in pSPYNE-35S (BiFC fusion) (enzyme, UniProt Q60EZ2 1-402)
chain: B1 chain
